No constants are given. Whether binding was seen depends on the method and setting. In cells and extracts the contact can be indirect. Some binding calls cover weakened binding; strength is not graded here. Values belong to the molecule of their own block, whether it stands above or below them.
How the values were obtained:
Assay in all cases: co-IP; endogenous co-immunoprecipitation from U87-MG extracts; one protein immunoprecipitated with its antibody, the other detected by immunoblot; protocol as described in ref. 45
[1] = target: T1, IKBKE (human (endogenous in U87-MG)) (UniProt Q14164)
T1 sequence: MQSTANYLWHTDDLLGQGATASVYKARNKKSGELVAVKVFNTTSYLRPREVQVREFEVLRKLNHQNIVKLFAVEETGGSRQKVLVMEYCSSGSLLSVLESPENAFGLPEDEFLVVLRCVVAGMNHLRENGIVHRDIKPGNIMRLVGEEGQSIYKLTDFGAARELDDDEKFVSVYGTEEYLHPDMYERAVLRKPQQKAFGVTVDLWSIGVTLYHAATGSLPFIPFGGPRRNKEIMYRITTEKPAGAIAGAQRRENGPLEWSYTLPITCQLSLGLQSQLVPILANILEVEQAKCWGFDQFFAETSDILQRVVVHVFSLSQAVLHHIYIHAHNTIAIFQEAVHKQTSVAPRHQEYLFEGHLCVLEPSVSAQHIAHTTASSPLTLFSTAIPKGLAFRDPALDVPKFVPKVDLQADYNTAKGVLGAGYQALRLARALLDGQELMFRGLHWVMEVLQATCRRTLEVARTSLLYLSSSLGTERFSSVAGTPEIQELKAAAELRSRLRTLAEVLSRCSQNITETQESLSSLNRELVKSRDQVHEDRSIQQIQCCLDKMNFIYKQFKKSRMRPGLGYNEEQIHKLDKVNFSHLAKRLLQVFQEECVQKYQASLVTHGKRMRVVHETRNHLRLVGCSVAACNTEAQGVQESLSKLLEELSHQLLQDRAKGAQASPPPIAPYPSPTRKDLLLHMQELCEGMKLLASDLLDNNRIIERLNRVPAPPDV

By UniProt entry, the sequences of proteins in these tests, tags left out.
UniProt Q15562: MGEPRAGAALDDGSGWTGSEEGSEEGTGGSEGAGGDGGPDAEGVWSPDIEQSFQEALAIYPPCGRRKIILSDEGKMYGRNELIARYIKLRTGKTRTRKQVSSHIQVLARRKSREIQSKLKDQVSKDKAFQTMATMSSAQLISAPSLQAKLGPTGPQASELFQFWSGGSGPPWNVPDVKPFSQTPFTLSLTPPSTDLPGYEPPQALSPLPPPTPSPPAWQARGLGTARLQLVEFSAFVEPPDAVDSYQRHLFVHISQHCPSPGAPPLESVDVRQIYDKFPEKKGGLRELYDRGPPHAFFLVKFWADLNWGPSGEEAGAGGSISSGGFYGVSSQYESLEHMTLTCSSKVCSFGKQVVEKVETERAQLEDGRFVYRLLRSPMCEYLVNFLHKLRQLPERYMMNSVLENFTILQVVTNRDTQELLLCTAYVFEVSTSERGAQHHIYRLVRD
UniProt P46937: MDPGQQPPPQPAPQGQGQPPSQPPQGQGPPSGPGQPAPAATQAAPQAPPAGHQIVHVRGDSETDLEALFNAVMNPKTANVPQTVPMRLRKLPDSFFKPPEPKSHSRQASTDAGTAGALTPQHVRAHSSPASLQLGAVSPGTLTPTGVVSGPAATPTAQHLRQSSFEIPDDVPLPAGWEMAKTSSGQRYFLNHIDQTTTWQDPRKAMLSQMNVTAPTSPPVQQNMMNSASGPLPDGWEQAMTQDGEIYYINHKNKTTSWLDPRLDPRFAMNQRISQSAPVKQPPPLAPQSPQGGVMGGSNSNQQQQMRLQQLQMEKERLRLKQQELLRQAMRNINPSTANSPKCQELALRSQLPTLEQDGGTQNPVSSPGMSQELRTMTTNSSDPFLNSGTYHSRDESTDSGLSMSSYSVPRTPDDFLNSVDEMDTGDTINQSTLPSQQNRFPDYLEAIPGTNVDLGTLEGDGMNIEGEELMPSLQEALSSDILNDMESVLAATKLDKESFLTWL

[2] = target: TEA domain family member 2 (TEAD2) (human (endogenous in U87-MG)) (UniProt Q15562)
[3] = target: Yes-associated protein 1 (YAP1) (human (endogenous in U87-MG)) (UniProt P46937)

binding [1]: binds
Molecule: Yes-associated protein 1 (YAP1) (from UniProt P46937 1-504)

binding [2]: binds
binding [3]: binds
B1: IKBKE (protein, UniProt Q14164 1-716)
chain: T1 sequence
